Test results: the supplement of paper PMC10849652
The other results are listed elsewhere or left out.

The chains behind the UniProt entries cited, without tags or fusion partners. Where a name states a change or a piece, a line headed by the entry shows the natural chain unless it says otherwise.
UniProt Q12894: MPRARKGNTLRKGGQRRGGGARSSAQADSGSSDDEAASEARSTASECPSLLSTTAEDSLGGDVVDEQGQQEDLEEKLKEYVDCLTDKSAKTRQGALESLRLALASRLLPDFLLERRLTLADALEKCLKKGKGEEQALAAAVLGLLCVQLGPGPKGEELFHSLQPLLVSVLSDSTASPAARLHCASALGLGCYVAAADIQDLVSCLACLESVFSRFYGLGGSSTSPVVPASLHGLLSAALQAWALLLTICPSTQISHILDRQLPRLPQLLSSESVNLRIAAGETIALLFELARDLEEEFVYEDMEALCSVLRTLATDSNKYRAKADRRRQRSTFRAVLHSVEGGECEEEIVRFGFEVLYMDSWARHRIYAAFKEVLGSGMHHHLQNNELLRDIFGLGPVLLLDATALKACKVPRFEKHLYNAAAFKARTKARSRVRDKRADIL
UniProt O00425, whole entry, looked up: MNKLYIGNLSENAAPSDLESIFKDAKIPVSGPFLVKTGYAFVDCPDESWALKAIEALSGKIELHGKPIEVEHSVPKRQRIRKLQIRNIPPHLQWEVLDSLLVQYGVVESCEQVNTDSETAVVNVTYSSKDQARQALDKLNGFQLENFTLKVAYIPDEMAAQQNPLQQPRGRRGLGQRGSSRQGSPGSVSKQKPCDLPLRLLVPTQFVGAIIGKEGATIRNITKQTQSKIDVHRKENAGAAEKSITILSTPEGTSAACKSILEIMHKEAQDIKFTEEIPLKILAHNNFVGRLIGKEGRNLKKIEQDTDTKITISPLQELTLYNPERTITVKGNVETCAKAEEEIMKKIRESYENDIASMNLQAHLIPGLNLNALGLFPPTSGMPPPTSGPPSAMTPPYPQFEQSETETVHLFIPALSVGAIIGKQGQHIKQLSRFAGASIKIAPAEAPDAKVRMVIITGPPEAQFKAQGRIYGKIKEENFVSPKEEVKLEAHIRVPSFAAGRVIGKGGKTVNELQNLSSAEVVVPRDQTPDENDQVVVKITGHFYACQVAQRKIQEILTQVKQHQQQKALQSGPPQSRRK
UniProt Q13576: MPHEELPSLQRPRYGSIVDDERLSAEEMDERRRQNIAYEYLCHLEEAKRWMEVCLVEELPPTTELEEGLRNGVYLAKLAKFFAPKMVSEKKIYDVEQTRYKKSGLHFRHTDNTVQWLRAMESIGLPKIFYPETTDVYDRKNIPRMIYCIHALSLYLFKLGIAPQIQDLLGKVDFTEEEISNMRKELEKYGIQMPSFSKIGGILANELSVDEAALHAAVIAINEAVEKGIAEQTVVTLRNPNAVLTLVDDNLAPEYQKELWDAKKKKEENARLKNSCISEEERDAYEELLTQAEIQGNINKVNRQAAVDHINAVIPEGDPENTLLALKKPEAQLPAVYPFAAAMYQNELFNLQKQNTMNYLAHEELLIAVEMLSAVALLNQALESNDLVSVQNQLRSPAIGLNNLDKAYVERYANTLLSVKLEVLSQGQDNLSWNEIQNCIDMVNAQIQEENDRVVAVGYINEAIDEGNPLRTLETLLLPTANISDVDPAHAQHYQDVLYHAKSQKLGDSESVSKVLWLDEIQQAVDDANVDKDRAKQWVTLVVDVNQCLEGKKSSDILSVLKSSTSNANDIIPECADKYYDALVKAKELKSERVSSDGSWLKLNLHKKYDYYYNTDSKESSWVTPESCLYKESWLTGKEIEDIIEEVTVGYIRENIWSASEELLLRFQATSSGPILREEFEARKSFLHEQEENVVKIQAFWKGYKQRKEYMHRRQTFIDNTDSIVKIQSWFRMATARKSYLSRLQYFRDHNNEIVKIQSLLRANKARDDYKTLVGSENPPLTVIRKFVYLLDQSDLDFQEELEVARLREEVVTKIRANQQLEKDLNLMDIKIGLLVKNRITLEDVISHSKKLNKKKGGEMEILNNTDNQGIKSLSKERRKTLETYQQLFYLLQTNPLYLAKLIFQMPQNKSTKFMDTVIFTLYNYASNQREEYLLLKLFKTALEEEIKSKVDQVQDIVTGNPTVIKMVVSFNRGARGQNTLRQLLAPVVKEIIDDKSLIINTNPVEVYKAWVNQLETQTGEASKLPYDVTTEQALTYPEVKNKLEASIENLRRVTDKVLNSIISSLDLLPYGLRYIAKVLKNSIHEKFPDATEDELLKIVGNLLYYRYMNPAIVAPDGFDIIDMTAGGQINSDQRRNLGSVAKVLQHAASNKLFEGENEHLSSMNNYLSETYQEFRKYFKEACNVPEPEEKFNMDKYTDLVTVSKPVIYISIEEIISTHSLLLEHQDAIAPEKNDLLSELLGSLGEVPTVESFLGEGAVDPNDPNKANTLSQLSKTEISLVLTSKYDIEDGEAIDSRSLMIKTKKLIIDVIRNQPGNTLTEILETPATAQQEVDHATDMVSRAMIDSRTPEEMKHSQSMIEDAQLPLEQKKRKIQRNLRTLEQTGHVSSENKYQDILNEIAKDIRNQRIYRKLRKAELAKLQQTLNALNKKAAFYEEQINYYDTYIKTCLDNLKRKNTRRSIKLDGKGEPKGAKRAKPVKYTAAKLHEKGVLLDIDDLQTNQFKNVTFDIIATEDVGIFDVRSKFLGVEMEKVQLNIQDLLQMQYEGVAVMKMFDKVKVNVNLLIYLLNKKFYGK
UniProt P29218: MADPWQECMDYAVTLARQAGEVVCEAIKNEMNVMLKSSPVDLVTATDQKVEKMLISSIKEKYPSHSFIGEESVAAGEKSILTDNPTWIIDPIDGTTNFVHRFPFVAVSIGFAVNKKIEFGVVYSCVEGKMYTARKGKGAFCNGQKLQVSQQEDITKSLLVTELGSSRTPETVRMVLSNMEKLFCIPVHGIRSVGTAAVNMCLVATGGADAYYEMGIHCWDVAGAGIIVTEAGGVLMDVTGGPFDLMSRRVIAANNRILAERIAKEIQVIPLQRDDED
UniProt P49441: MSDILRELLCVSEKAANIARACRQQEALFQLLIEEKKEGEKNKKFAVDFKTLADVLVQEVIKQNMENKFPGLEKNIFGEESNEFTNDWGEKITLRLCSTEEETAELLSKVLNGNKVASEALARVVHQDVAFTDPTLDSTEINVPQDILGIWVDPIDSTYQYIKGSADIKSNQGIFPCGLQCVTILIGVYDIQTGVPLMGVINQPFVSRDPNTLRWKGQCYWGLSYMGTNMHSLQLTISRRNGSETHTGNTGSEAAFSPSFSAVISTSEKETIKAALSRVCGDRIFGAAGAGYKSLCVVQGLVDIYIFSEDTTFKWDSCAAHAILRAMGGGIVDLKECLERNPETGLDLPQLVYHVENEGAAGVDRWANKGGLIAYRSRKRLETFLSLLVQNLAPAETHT
UniProt Q9NVR2, whole entry, looked up: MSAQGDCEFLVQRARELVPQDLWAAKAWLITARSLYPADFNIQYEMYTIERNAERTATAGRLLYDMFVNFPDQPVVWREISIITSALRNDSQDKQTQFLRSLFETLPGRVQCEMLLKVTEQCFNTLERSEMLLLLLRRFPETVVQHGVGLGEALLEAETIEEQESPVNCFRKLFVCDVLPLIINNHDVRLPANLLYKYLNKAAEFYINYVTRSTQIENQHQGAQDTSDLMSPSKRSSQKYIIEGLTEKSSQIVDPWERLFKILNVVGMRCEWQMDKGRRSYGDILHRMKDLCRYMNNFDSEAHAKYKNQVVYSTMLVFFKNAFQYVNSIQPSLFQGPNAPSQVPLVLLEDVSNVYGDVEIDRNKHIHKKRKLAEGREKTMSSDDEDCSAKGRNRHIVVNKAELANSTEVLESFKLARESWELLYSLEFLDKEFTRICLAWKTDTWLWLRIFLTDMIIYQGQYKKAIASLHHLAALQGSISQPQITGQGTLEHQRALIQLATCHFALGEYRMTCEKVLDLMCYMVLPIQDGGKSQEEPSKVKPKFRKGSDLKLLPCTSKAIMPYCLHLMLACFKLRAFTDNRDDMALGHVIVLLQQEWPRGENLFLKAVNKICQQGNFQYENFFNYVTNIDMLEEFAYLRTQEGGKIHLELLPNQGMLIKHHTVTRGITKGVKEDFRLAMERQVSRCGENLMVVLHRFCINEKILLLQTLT
UniProt O75054: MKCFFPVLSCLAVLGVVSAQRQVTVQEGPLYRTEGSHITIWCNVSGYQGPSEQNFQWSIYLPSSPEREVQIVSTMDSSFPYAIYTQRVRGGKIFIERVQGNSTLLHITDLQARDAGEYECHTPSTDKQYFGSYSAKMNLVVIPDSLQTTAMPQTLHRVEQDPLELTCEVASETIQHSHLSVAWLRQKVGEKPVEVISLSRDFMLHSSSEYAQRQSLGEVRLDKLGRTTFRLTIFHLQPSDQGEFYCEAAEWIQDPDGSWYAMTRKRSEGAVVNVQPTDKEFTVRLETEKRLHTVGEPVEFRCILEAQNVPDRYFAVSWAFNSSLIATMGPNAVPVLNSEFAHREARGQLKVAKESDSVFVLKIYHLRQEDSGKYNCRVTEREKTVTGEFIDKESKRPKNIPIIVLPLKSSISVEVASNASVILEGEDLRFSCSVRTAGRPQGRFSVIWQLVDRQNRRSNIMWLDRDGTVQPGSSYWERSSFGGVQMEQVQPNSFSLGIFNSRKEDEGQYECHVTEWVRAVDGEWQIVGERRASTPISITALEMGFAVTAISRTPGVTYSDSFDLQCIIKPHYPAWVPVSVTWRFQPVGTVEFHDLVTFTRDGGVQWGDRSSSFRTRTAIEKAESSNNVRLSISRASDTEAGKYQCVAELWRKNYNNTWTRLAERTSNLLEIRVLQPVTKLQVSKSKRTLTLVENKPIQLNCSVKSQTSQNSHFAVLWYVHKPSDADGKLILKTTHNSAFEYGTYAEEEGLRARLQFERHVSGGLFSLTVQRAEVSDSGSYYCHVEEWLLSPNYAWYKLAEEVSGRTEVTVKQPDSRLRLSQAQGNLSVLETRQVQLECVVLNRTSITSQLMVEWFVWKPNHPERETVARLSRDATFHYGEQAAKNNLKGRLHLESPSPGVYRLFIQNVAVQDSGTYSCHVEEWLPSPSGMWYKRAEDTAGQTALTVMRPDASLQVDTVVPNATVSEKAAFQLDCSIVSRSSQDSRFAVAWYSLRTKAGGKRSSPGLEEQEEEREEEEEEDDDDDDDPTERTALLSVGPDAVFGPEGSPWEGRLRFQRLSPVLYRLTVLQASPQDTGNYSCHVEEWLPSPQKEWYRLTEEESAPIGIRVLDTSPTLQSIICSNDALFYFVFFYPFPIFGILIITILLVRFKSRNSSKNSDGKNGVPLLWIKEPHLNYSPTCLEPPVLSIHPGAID
UniProt Q96CN7: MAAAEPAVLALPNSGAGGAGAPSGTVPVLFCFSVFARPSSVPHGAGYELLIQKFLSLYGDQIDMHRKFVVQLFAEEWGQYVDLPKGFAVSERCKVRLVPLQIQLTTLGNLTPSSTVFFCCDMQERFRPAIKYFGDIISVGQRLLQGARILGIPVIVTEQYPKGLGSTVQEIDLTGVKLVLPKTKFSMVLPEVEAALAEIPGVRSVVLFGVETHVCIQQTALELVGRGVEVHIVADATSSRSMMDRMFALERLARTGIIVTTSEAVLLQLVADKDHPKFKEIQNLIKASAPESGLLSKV
UniProt A1L0T0: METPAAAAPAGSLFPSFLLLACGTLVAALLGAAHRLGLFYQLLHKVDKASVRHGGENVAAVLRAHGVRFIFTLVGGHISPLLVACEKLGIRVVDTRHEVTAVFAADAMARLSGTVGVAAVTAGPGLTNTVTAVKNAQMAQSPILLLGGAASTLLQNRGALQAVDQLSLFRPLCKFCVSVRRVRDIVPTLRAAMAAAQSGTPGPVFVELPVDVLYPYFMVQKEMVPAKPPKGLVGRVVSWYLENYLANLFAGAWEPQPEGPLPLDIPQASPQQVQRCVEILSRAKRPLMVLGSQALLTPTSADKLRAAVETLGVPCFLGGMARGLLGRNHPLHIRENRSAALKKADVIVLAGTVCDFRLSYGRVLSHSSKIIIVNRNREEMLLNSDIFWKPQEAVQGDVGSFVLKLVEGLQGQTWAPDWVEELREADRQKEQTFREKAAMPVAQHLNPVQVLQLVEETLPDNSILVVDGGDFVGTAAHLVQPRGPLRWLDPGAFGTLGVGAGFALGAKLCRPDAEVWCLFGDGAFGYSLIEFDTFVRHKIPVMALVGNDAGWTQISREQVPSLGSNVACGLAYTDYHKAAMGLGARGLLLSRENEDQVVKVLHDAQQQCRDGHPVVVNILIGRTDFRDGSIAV
UniProt O00458: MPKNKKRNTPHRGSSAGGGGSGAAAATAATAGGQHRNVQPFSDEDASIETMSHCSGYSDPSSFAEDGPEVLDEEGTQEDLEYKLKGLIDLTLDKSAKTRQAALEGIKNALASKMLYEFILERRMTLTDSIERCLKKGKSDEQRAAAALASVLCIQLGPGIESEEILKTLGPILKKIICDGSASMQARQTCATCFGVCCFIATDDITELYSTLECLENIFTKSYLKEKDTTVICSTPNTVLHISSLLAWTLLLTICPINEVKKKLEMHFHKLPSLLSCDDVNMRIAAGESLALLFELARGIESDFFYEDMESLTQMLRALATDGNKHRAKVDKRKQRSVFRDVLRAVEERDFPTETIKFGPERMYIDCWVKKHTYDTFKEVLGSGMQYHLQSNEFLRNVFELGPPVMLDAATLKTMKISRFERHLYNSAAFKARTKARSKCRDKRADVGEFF

Legend:
Test in all cases: log2 fold change, soluble protein after heating vs DMSO (PISA); higher = thermal stabilisation; K562 cells, 10 uM, 30 min; active = over 0.2 and 3.5 SD of the protein, either way, in both replicates (recomputed)
[1] = compound: COC1=CC=C(C=C1)CN2C=CC3=C2C=C(C=C3)C(=O)NO
Method in brief: (§1)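 Soluble protein was defined as the supernatant after 21,000xg for 90 min. It came from K562 cells at 2×10^6 cells/mL given 10 μM compound for 30 min, heated in aliquots for 3 min across 48°C-58°C, pooled, and extracted in PBS with 0.5% NP-40 at 4°C, and was quantified by TMTpro 16plex LC-MS/MS with equalised channel sums. Thermal stability against control samples, from duplicates, is reported as log2 fold change.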

[2] = compound: CON(C)C(=O)N1N=C(c2cc(F)ccc2F)S[C@@]1(CCCN)c1ccccc1 [filanesib]
Method in brief: as §1

[3] = compound: CO[C@H]1C[C@@H]2CC[C@@H](C)[C@@](O)(O2)C(=O)C(=O)N2CCCC[C@H]2C(=O)O[C@H]([C@H](C)C[C@@H]2CC[C@H](n3cnnn3)[C@H](OC)C2)CC(=O)[C@H](C)/C=C(\C)[C@@H](O)[C@@H](OC)C(=O)[C@H](C)C[C@H](C)/C=C/C=C/C=C/1C [zotarolimus]
Method in brief: as §1

[4] = compound: COc1cc(C(=O)O)ccc1NC(=O)[C@@H]1N[C@@H](CC(C)(C)C)[C@](C#N)(c2ccc(Cl)cc2F)[C@H]1c1cccc(Cl)c1F [idasanutlin]
Method in brief: as §1

[5] = compound: COc1cc(Nc2ncc3c(n2)-c2ccc(Cl)cc2C(c2c(F)cccc2OC)=NC3)ccc1C(=O)O [alisertib]
Method in brief: as §1

[6] = compound: COc1cc2nc(-c3cc(F)ccc3O)nc(N[C@@H]3CNC[C@H]3C(C)(C)O)c2cc1OC
Method in brief: as §1

[7] = compound: COc1cc2ncnc(Nc3ccc(F)c(Cl)c3)c2cc1OCCCN1CCOCC1 [gefitinib]
Method in brief: as §1

[8] = compound: COc1cccc2cc(-c3nc([C@H]4CC[C@H](C(=O)O)CC4)n4ncnc(N)c34)[nH]c12
Method in brief: as §1

[9] = compound: CS(=O)(=O)CCNCc1ccc(-c2ccc3ncnc(Nc4ccc(OCc5cccc(F)c5)c(Cl)c4)c3c2)o1 [lapatinib]
Method in brief: as §1

[10] = compound: CS(=O)(=O)N1CCN(Cc2cc3nc(-c4cccc5[nH]ncc45)nc(N4CCOCC4)c3s2)CC1 [pictilisib]
Method in brief: as §1

[11] = compound: CS(=O)(=O)c1ccc(-c2cnc(N)c(C(=O)Nc3ccccc3)n2)cc1
Method in brief: as §1

[12] = compound: C[C@@H](Oc1cc(-c2cnn(C3CCNCC3)c2)cnc1N)c1c(Cl)ccc(F)c1Cl [crizotinib]
Method in brief: as §1

[13] = compound: C[C@@H]1COCCN1C2=NC(=NC(=C2)C3(CC3)S(=O)(=O)C)C4=C5C=CNC5=CC=C4
Method in brief: as §1

[14] = compound: C[C@H](C1=CC=C(C=C1)C(=O)NC2=C3C=CNC3=NC=C2)N
Method in brief: as §1

[15] = compound: Cc1cc(Nc2cc(CN3CCOCC3)c3nc(C)c(Cc4ccc(Cl)cc4F)n3n2)n[nH]1 [gandotinib]
Method in brief: as §1

[16] = compound: Cc1cc(SCc2sc(-c3ccc(C(F)(F)F)cc3)nc2C)ccc1OCC(=O)O
Method in brief: as §1

[17] = compound: Cc1ccc(-n2nc(C(C)(C)C)cc2NC(=O)Nc2ccc(OCCN3CCOCC3)c3ccccc23)cc1 [doramapimod]
Method in brief: as §1

[18] = compound: Cc1ccc(C(=O)N(CCCN)[C@@H](c2nc3cc(Cl)ccc3c(=O)n2Cc2ccccc2)C(C)C)cc1 [ispinesib]
Method in brief: as §1

[19] = compound: C[C@H](Nc1ncnc2nc[nH]c12)c1cc2cccc(Cl)c2c(=O)n1-c1ccccc1 [duvelisib]
Method in brief: as §1

[20] = compound: Cc1cc(Nc2cc(N3CCN(C)CC3)nc(Sc3ccc(NC(=O)C4CC4)cc3)n2)n[nH]1 [tozasertib]
Method in brief: as §1

| Target | log2 fold change [1] | log2 fold change [2] | log2 fold change [3] | log2 fold change [4] | log2 fold change [5] | log2 fold change [6] | log2 fold change [7] | log2 fold change [8] | log2 fold change [9] | log2 fold change [10] | log2 fold change [11] | log2 fold change [12] | log2 fold change [13] | log2 fold change [14] | log2 fold change [15] | log2 fold change [16] | log2 fold change [17] | log2 fold change [18] | log2 fold change [19] | log2 fold change [20] |
| --- | --- | --- | --- | --- | --- | --- | --- | --- | --- | --- | --- | --- | --- | --- | --- | --- | --- | --- | --- | --- |
| IFRD2 isoform 2 (UniProt Q12894) | inactive: -0.073 | inactive: 0.008 | inactive: 0.24 | inactive: 0 | inactive: -0.278 | inactive: -0.219 | inactive: 0.128 | active: 0.508 | inactive: 0.037 | inactive: 0.336 | inactive: 0.352 | inactive: -0.047 | inactive: 0.396 | inactive: -0.035 | inactive: 0.155 | inactive: -0.059 | inactive: 0.052 | inactive: 0.089 |  |  |
| IGF2BP3 (UniProt O00425) | inactive: -0.056 | inactive: 0.452 | inactive: 0.056 | inactive: 0.209 | inactive: -0.134 | inactive: -0.347 | inactive: -0.005 | inactive: -0.246 | inactive: 0.234 | inactive: -0.032 | inactive: 0.003 | inactive: -0.082 | inactive: -0.413 | inactive: 0.41 | inactive: 0.129 | inactive: 0.155 | inactive: 0.239 | inactive: -0.298 | inactive: -0.103 | inactive: 0.108 |
| IQGAP2 (UniProt Q13576) | inactive: -0.005 | inactive: 0.052 | inactive: 0.058 | inactive: 0.018 | inactive: 0.1 | inactive: 0.036 | inactive: 0.047 | inactive: -0.107 | inactive: -0.047 | inactive: -0.022 | inactive: 0.048 | inactive: -0.179 | inactive: 0.02 | inactive: 0.086 | inactive: -0.135 | inactive: 0.103 | inactive: 0.004 | inactive: -0.221 | inactive: -0.076 | inactive: -0.016 |
| IMPA1 isoform 3 (UniProt P29218) | inactive: -0.04 | inactive: -0.012 | inactive: -0.036 | inactive: 0.035 | inactive: -0.018 | inactive: 0.038 | inactive: 0.006 | inactive: 0.057 | inactive: 0.015 | inactive: 0.038 | inactive: 0.017 | inactive: 0.051 | inactive: 0.026 | inactive: -0.061 | inactive: -0.012 | inactive: -0.051 | inactive: -0.04 | inactive: 0.016 | inactive: 0.031 | inactive: -0.027 |
| ITPA (UniProt Q9BY32) | inactive: 0.003 | inactive: -0.048 | inactive: 0.007 | inactive: -0.034 | inactive: -0.019 | inactive: 0 | inactive: 0.003 | inactive: 0.056 | inactive: 0.021 | inactive: 0.077 | inactive: 0.045 | inactive: 0.041 | inactive: 0.026 | inactive: -0.008 | inactive: -0.025 | inactive: 0.042 | inactive: -0.06 | inactive: 0.099 | inactive: 0.107 | inactive: -0.044 |
| INPP1 (UniProt P49441) | inactive: -0.086 | inactive: -0.019 | inactive: 0.048 | inactive: -0.123 | inactive: -0.056 | inactive: 0.101 | inactive: -0.031 | inactive: 0.03 | inactive: -0.049 | inactive: -0.116 | inactive: 0.041 | inactive: -0.016 | inactive: -0.012 | inactive: -0.028 | inactive: -0.084 | inactive: -0.043 | inactive: -0.018 | inactive: 0.052 |  |  |
| IRF3 (UniProt Q14653) | inactive: -0.075 | inactive: -0.141 | inactive: 0.021 | inactive: -0.073 | inactive: -0.085 | inactive: -0.08 | inactive: 0.011 | inactive: 0.023 | inactive: -0.003 | inactive: 0.053 | inactive: -0.146 | inactive: 0.007 | inactive: 0.056 | inactive: -0.027 | inactive: -0.068 | inactive: 0.053 | inactive: -0.038 | inactive: 0.022 |  |  |
| IFT74 (UniProt Q96LB3) | inactive: 0.083 | inactive: -0.014 | inactive: 0.019 | inactive: -0.058 | inactive: -0.102 | inactive: 0.339 | inactive: 0.035 | inactive: 0.024 | inactive: -0.025 | inactive: 0.052 | inactive: 0.21 | inactive: -0.04 | inactive: 0.014 | inactive: 0.088 | inactive: -0.02 | inactive: -0.094 | inactive: 0.095 | inactive: -0.133 |  |  |
| INTS10 (UniProt Q9NVR2) | inactive: 0.06 | inactive: -0.077 | inactive: 0.011 | inactive: -0.052 | inactive: -0.033 | inactive: -0.036 | inactive: 0.009 | inactive: -0.087 | inactive: -0.022 | inactive: 0.063 | inactive: 0 | inactive: -0.001 | inactive: 0.173 | inactive: -0.052 | inactive: -0.166 | inactive: 0.076 | inactive: -0.043 | inactive: 0.001 | inactive: 0.111 | inactive: -0.03 |
| IKBIP isoform 4 (UniProt Q70UQ0) | inactive: -0.042 | inactive: 0.02 | inactive: -0.015 | inactive: 0.052 | inactive: -0.048 | inactive: 0.055 | inactive: 0 | inactive: -0.022 | inactive: 0.002 | inactive: 0.008 | inactive: 0.017 | inactive: 0.032 | inactive: -0.017 | inactive: 0.017 | inactive: 0.046 | inactive: -0.015 | inactive: 0.021 | inactive: -0.015 | inactive: 0.015 | inactive: 0.02 |
| IGSF3 (UniProt O75054) | inactive: -0.07 | inactive: 0.057 | inactive: 0.002 | inactive: -0.03 | inactive: -0.014 | inactive: 0.075 | inactive: 0.007 | inactive: 0.079 | inactive: -0.07 | inactive: 0.078 | inactive: -0.022 | inactive: -0.02 | inactive: 0.049 | inactive: -0.022 | inactive: -0.046 | inactive: -0.008 | inactive: -0.007 | inactive: 0.001 | inactive: 0.012 | inactive: -0.095 |
| ISOC1 (UniProt Q96CN7) | inactive: -0.003 | inactive: -0.002 | inactive: 0.003 | inactive: -0.008 | inactive: -0.007 | inactive: 0.007 | inactive: -0.001 | inactive: 0.046 | inactive: -0.059 | inactive: 0.072 | inactive: 0.01 | inactive: 0.048 | inactive: 0.024 | inactive: -0.046 | inactive: -0.076 | inactive: -0.005 | inactive: -0.01 | inactive: 0.038 | inactive: -0.025 | inactive: -0.024 |
| INPP4A (UniProt Q96PE3) | inactive: -0.039 | inactive: 0.006 | inactive: 0.019 | inactive: -0.03 | inactive: 0.099 | inactive: 0.075 | inactive: -0.001 | inactive: 0.002 | inactive: 0.012 | inactive: 0.096 | inactive: 0.016 | inactive: 0.074 | inactive: 0.038 | inactive: -0.02 | inactive: -0.155 | inactive: -0.021 | inactive: 0 | inactive: 0.139 | inactive: 0.093 | inactive: 0.01 |
| ILVBL (UniProt A1L0T0) | inactive: -0.008 | inactive: 0.006 | inactive: 0.072 | inactive: -0.106 | inactive: -0.088 | inactive: -0.001 | inactive: 0.075 | inactive: 0.082 | inactive: -0.011 | inactive: 0.031 | inactive: 0.055 | inactive: 0 | inactive: 0.058 | inactive: 0.061 | inactive: 0.02 | inactive: -0.005 | inactive: -0.003 | active: 0.213 |  |  |
| ILF2 (UniProt Q12905) | inactive: 0.086 | inactive: 0.101 | inactive: -0.024 | inactive: 0.084 | inactive: -0.146 | inactive: 0.068 | inactive: -0.045 | inactive: -0.08 | inactive: 0.101 | inactive: -0.035 | inactive: -0.168 | inactive: -0.164 | inactive: -0.153 | inactive: 0.206 | inactive: 0.07 | inactive: 0.022 | inactive: 0.063 | inactive: 0.038 |  |  |
| IFRD1 (UniProt O00458) | inactive: -0.07 | inactive: -0.017 | inactive: 0.071 | inactive: -0.042 | inactive: -0.008 | inactive: -0.25 | inactive: 0.199 | inactive: 0.253 | inactive: 0.069 | inactive: 0.214 | inactive: 0.347 | inactive: 0.004 | active: 0.37 | inactive: 0.013 | inactive: 0.104 | inactive: -0.003 | inactive: 0 | inactive: -0.006 |  |  |
| IMPDH2 (UniProt P12268) | inactive: -0.015 | inactive: 0.04 | inactive: 0.046 | inactive: 0.024 | inactive: -0.061 | inactive: -0.078 | inactive: -0.045 | inactive: -0.039 | inactive: 0.063 | inactive: -0.016 | inactive: -0.027 | inactive: 0.001 | inactive: -0.118 | inactive: 0.085 | inactive: -0.014 | inactive: 0.03 | inactive: 0.022 | inactive: -0.08 | inactive: -0.04 | inactive: 0.039 |

An excerpt from above, showing only log2 fold change [7].
Target	log2 fold change [7]
ISOC1 (UniProt Q96CN7)	inactive: -0.001
INPP4A (UniProt Q96PE3)	inactive: -0.001
